Test results published in PMC7016946.
No constants are given. Whether binding was seen depends on the method and setting. Binding seen in cells or lysates may run through a third protein. Some results given as binding are weak or reduced against the parent protein; the word gives no strength.

Amino acid sequences for entries named in this document (tags omitted).
UniProt Q09472: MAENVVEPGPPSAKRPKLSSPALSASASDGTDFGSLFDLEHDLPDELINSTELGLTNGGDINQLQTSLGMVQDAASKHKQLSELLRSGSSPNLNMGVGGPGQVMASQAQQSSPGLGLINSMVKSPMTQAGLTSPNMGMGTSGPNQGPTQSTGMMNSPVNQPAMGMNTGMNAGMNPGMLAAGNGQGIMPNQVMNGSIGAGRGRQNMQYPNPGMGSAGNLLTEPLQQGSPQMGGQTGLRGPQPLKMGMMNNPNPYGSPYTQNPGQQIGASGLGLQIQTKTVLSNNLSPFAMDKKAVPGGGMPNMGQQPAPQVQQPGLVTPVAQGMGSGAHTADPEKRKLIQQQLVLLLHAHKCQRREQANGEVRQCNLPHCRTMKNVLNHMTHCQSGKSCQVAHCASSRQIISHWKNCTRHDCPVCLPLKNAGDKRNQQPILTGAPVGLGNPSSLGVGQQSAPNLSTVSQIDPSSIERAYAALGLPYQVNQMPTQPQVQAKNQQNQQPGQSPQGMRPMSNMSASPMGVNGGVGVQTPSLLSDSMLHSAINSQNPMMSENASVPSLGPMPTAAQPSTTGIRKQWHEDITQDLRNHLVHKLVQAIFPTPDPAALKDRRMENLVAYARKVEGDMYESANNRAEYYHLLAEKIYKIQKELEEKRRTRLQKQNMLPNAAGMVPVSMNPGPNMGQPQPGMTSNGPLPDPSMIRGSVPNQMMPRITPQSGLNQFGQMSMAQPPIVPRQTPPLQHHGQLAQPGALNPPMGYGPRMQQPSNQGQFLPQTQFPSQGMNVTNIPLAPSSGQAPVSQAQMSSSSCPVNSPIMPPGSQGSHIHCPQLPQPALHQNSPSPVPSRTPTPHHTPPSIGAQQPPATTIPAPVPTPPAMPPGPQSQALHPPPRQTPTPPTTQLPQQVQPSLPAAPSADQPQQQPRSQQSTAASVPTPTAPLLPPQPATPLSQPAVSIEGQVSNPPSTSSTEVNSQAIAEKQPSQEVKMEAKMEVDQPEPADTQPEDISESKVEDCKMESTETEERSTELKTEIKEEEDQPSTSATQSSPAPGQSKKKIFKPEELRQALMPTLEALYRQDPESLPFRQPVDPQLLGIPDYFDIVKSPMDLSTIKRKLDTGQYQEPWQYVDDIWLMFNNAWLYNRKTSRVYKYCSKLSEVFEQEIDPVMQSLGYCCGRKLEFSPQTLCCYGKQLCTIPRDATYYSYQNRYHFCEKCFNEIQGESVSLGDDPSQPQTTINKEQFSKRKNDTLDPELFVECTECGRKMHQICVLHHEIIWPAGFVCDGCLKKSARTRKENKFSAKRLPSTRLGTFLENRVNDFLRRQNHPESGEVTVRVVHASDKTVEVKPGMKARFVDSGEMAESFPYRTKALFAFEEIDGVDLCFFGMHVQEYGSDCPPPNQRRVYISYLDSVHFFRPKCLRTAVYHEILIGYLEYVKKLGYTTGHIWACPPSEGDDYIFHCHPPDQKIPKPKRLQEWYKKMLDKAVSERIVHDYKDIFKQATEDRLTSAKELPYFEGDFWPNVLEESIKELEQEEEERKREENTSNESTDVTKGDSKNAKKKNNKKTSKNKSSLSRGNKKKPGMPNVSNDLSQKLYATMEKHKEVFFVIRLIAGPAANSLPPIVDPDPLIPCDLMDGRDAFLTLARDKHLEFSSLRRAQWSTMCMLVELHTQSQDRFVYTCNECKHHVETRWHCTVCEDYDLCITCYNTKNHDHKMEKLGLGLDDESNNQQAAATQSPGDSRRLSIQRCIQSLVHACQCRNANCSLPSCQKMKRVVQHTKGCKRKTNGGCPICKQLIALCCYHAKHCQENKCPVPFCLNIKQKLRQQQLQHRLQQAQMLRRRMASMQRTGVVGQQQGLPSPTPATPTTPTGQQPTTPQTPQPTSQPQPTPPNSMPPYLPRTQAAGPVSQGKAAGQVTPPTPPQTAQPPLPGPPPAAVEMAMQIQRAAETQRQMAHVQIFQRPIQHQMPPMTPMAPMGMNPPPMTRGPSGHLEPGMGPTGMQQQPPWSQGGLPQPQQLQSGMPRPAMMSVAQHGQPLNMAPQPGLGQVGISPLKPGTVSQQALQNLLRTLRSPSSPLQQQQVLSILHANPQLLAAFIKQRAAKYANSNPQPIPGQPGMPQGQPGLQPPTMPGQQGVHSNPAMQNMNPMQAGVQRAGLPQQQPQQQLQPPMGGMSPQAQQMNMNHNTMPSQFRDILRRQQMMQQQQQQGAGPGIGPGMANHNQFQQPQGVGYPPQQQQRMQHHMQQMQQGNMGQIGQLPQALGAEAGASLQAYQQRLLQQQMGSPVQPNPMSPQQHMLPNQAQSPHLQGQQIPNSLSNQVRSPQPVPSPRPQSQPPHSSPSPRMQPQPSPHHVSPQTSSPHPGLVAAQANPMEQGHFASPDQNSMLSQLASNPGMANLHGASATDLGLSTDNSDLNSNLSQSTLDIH
UniProt Q9R1E0: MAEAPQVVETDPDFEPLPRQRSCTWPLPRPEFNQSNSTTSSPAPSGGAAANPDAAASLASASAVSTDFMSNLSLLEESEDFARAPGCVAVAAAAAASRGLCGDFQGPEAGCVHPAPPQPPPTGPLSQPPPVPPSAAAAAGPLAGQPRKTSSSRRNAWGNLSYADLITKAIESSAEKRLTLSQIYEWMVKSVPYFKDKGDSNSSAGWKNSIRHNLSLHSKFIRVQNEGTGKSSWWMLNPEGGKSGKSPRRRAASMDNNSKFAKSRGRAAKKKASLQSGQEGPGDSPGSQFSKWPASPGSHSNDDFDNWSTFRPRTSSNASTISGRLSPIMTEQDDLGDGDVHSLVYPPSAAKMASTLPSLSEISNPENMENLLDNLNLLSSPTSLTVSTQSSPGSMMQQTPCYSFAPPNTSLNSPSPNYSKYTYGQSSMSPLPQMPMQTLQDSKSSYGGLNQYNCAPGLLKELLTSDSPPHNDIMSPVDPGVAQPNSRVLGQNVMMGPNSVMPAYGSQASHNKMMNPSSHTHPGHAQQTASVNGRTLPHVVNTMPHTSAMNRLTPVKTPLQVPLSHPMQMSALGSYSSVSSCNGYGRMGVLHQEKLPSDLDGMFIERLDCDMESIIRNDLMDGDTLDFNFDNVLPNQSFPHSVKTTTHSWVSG

What was measured:
[1] = biological target: HA-tagged full-length p300 acetyltransferase (UniProt Q09472); assay: co-IP; E1A + Ras cells transfected with CMV-p300-HA, treated with NaBut for 24 h; extracts immunoprecipitated with anti-HA antibody, immunoblot with FoxO1 antibody
[2] = biological target: HA-tagged full-length p300 acetyltransferase (UniProt Q09472); assay: condition: only untreated control cells (without NaBut), in which E1A is expressed; co-IP; E1A + Ras cells transfected with CMV-p300-HA, untreated control cells (no NaBut); extracts immunoprecipitated with anti-HA antibody, immunoblot with FoxO1 antibody

binding [1]: binds
binding [2]: no binding
Substance: endogenous FoxO1 (from UniProt Q9R1E0 1-652)
